Assay results taken from PubChem BioAssay (NCATS).
The shares of active, inactive and inconclusive entries below differ from those in the screen. Potencies of inconclusive entries are doubtful fits and often do not repeat. Calls of active or inactive are those of the source. Calls come from the whole dose curve; as a rule, active = well fitted curve in the direction sought with a large enough effect; inconclusive = small, poorly fitted or top-dose-only effect, or another doubt; inactive = no such curve, though single readings can be large; an effect the other way counts as inactive or inconclusive.

What was measured:
[1] = Quantitative highthroughput screen to assess conditional lethalithy of NOMO1 cells grown in RPMI1640 with untreated serum (RPMI+s) (AID 1963876); details: NOMO1 AML cells in RPMI+serum, CellTiter-Glo viability, 48 h; viability: at 45.8 µM (top of the series); note: nearly all actives have a fitted effect of over 35% in size;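 for viability: 100% = DMSO wells and 0% = empty wells without cells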
Outline: (§1)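 Each medium arm—HPLM with 10% dialyzed FBS, or RPMI1640 with 5 mM glucose and 10% untreated or dialyzed FBS—was screened against an 11-point, 3-fold compound titration for 48 h at 37 °C, with CellTiter-Glo luminescence as endpoint.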

[2] = Quantitative highthroughput screen to assess conditional lethalithy of NOMO1 cells grown in RPMI1640 with dialyzed fetal bovine serum (RPMI+ds) (AID 1963877); note: nearly all actives have a fitted effect of over 30% in size;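 for viability: 100% = DMSO control wells and 0% = empty wells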
Outline: as §1

[3] = Quantitative highthroughput screen to assess conditional lethalithy of NOMO1 cells grown in Human Plasma-Like Medium with dialyzed fetal bovine serum (HPLM+ds) (AID 1963878); details: NOMO1 AML cells in HPLM+ds, CellTiter-Glo viability, 48 h; viability: at 45.8 µM (top of the series); note: nearly all actives have a fitted effect of over 35% in size;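 for viability: 100% = DMSO wells and 0% = empty wells on each plate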
Outline: as §1

[4] = Quantitative highthroughput screen to assess conditional lethalithy of P12 Ichikawa cells grown in RPMI1640 with untreated serum (RPMI+s) (AID 1963881); details: Potency: viability; note: nearly all actives have a fitted effect of over 35% in size;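 for viability: 100% = DMSO wells and 0% = empty wells without cells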
Outline: as §1

[5] = Quantitative highthroughput screen to assess conditional lethalithy of SEM cells grown in Human Plasma-Like Medium with dialyzed fetal bovine serum (HPLM+ds) (AID 1963882); note: nearly all actives have a fitted effect of over 35% in size
Outline: as §1

[6] = Quantitative highthroughput screen to assess conditional lethalithy of SEM cells grown in RPMI1640 with dialyzed fetal bovine serum (RPMI+ds) (AID 1963884); details: SEM B-ALL cells, RPMI+dialyzed FBS, CellTiter-Glo viability, 48 h; viability: at 45.8 µM (top of the series); note: nearly all actives have a fitted effect of over 35% in size;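 for viability: 100% = DMSO control wells and 0% = empty wells without cells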
Outline: as §1

[7] = Cellular viability qHTS for adrenocortical cancer (ACC) cell line SW-13 (AID 1963989); details: SW-13 ACC cells viability, CellTiter-Glo, 48 h; activity (max response): active compounds read low; note: nearly all actives have a fitted effect of over 65% in size;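 for activity (max response): cells grown in serum-free medium with ITS supplement; % is set by controls: 0 for no effect and ±100 for the full control effect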
Outline: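 SW-13 cells in ITS-supplemented serum-free DMEM were plated overnight, then exposed for 48 h at 37C to compound titrations (up to 46 uM final). Viability was read by CellTiter-Glo luminescence; four-parameter logistic fits gave IC50 and efficacy.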

[8] = Cellular viability qHTS for adrenocortical cancer (ACC) cell line NCI-H295R (AID 1963990); details: CellTiter-Glo ATP luminescence, 48 h; activity change, negative = viability loss: at 46.1 µM (top of the series); note: nearly all actives have a fitted effect of over 60% in size;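 for activity change, negative = viability loss: 0% = DMSO only wells and -100% = full killing with cytotoxic reference compound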
Outline: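 Luminescent ATP read-out (CellTiter-Glo, 20 min RT) after 48 h drug exposure of NCI-H295R cells; a titration up to 46 uM final. Data normalized to doxorubicin (100% inhibition) and DMSO (0%); 4-parameter fit gives IC50, max response.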

[9] = Quantitative highthroughput screen to assess conditional lethalithy of P12 Ichikawa cells grown in RPMI1640 with dialyzed fetal bovine serum (RPMI+ds) (AID 1963880); details: Potency: P12-Ichikawa viability; note: nearly all actives have a fitted effect of over 35% in size;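 for viability: 100% = DMSO wells and 0% = empty wells on each plate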
Outline: as §1

[10] = Quantitative highthroughput screen to assess conditional lethalithy of SEM cells grown in RPMI1640 with unreated serum (RPMI+s) (AID 1963883); details: SEM B-ALL cells, CellTiter-Glo viability, 48 h; viability: at 45.8 µM (top of the series); note: nearly all actives have a fitted effect of over 35% in size;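 for viability: 100% = DMSO wells and 0% = empty wells without cells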
Outline: as §1

[11] = Quantitative highthroughput screen to assess conditional lethalithy of P12 Ichikawa cells grown in Human Plasma-Like Medium with dialyzed fetal bovine serum (HPLM+ds) (AID 1963879); details: Potency: viability; note: nearly all actives have a fitted effect of over 35% in size
Outline: as §1
Potency is the fitted concentration of half-maximal effect.

## CN(CC(=O)N(Cc1ccc(C2CCCCC2)cc1)c1ccc(C(=O)O)c(O)c1)S(=O)(=O)c1c(F)c(F)c(F)c(F)c1F
[1]
  Potency: inconclusive: 37.2 µM [cytotoxic, single point]
[2]
  Potency: inconclusive: 20.9 µM [cytotoxic, single point]
[3]
  Potency: inconclusive: 29.6 µM [cytotoxic, partial curve]
[4]
  Potency: inconclusive: 26.4 µM [cytotoxic, single point]
[5]
  Potency: inconclusive: 26.4 µM [cytotoxic, single point]
[6]
  Potency: inconclusive: 18.7 µM [cytotoxic, partial curve]
[7]
  activity (max response): inactive: -5.17%
[8]
  Potency: inconclusive: 11.2 µM [cytotoxic, single point]

## O=C(NCC1CCCCN1)c1cc(OCC(F)(F)F)ccc1OCC(F)(F)F (stereo not drawn)
[1]
  Potency: active: 0.332 µM
[2]
  Potency: inconclusive: 0.332 µM [cytotoxic, full curve]
[3]
  Potency: inconclusive: 0.296 µM [cytotoxic, full curve]
[9]
  Potency: active: 2.96 µM
[5]
  Potency: inconclusive: 23.5 µM [cytotoxic, partial curve]
[10]
  Potency: inconclusive: 26.4 µM [cytotoxic, single point]
[7]
  Potency: inconclusive: 23.1 µM [cytotoxic, single point]
[8]
  Potency: inconclusive: 0.58 µM [cytotoxic, partial curve, poor fit]

## Cc1cc(N2CCOCC2)cc2[nH]c(-c3c(NC[C@@H](O)c4cccc(Cl)c4)cc[nH]c3=O)nc12
[1]
  Potency: inconclusive: 1.18 µM [cytotoxic, full curve]
[2]
  Potency: inconclusive: 0.469 µM [cytotoxic, full curve]
[3]
  Potency: inconclusive: 1.66 µM [cytotoxic, full curve]
[4]
  Potency: inconclusive: 23.5 µM [cytotoxic, partial curve, poor fit]
[10]
  Potency: active: 1.66 µM
[7]
  Potency: inconclusive: 35.5 µM [cytotoxic, single point]

## O=c1[nH]c(=O)n([C@H]2C[C@@H](O)[C@@H](CO)O2)cc1F
[1]
  Potency: inconclusive: 1.32 µM [cytotoxic, full curve]
[2]
  Potency: active: 0.0148 µM
[3]
  Potency: inconclusive: 0.0209 µM [cytotoxic, full curve]
[4]
  Potency: inconclusive: 0.148 µM [cytotoxic, full curve]
[10]
  Potency: active: 2.35 µM
[6]
  Potency: inconclusive: 0.0105 µM [cytotoxic, full curve]

## Cc1[nH]c(C=C2C(=O)Nc3ccc(S(=O)(=O)N(C)c4cccc(Cl)c4)cc32)c(C)c1C(=O)N1CCN(C)CC1
[1]
  Potency: inconclusive: 23.5 µM [cytotoxic, partial curve, poor fit]
[2]
  Potency: inconclusive: 18.7 µM [cytotoxic, partial curve]
[3]
  Potency: inconclusive: 29.6 µM [cytotoxic, single point]
[4]
  Potency: active: 18.7 µM
[10]
  Potency: active: 11.8 µM
[6]
  Potency: active: 6.62 µM

## CN1C(C(=O)Nc2ccccn2)=C(O)c2sccc2S1(=O)=O
[1]
  Potency: inconclusive: 26.4 µM [cytotoxic, single point]
[2]
  Potency: inconclusive: 23.5 µM [cytotoxic, single point]
[3]
  Potency: inconclusive: 33.2 µM [cytotoxic, single point]
[4]
  Potency: inactive
[5]
  Potency: inactive
[6]
  Potency: inactive
[8]
  Potency: inactive

## O=C(O)c1ccc(-c2cc3cccnc3c(-c3ccc4nonc4c3)n2)cc1
[1]
  Potency: inactive
[2]
  Potency: inconclusive: 33.2 µM [cytotoxic, single point]
[3]
  Potency: inconclusive: 26.4 µM [cytotoxic, single point]
[9]
  Potency: inconclusive: 18.7 µM [cytotoxic, partial curve, poor fit]
[10]
  Potency: inconclusive: 23.5 µM [cytotoxic, partial curve, poor fit]
[6]
  Potency: inconclusive: 14.8 µM [cytotoxic, partial curve, poor fit]

## CC(=O)O[C@]1(C(C)=O)CC[C@H]2[C@@H]3C=C(Cl)C4=CC(=O)[C@@H]5C[C@H]5[C@]4(C)[C@@H]3CC[C@@]21C
[1]
  Potency: active: 0.59 µM
[2]
  Potency: inconclusive: 1.32 µM [cytotoxic, full curve]
[3]
  Potency: inconclusive: 1.18 µM [cytotoxic, full curve]
[9]
  Potency: active: 2.35 µM
[5]
  Potency: inactive
[10]
  Potency: inactive

## C=CCc1ccc(O)c(-c2ccc(O)c(CC=C)c2)c1
[1]
  Potency: inconclusive: 0.743 µM [cytotoxic, full curve]
[2]
  Potency: inconclusive: 0.59 µM [cytotoxic, full curve]
[3]
  Potency: inconclusive: 0.0935 µM [cytotoxic, full curve, poor fit]
[4]
  Potency: active: 1.05 µM
[5]
  Potency: inconclusive: 1.32 µM [cytotoxic, full curve]
[10]
  Potency: inconclusive: 0.743 µM [cytotoxic, full curve]
[6]
  Potency: inconclusive: 0.935 µM [cytotoxic, full curve]

## OC[C@H]1O[C@@H](Oc2cc(O)cc(C=Cc3ccc(O)cc3)c2)[C@H](O)[C@@H](O)[C@H]1O
[1]
  Potency: inconclusive: 4.69 µM [cytotoxic, full curve]
[2]
  Potency: active: 2.35 µM
[3]
  Potency: inconclusive: 1.32 µM [cytotoxic, full curve]
[4]
  Potency: inactive
[6]
  Potency: inactive

## O=C1[C@H](Cc2ccc(O)cc2)N2C(=O)CCN(C(=O)NCc3ccccc3)[C@H]2CN1Cc1cccc2ccccc12
[1]
  Potency: inconclusive: 10.5 µM [cytotoxic, single point]
[2]
  Potency: inconclusive: 8.33 µM [cytotoxic, single point]
[3]
  Potency: inconclusive: 9.35 µM [cytotoxic, single point]
[9]
  Potency: inconclusive: 11.8 µM [cytotoxic, single point]
[5]
  Potency: inconclusive: 8.33 µM [cytotoxic, single point]
[10]
  Potency: inconclusive: 9.35 µM [cytotoxic, single point]
[6]
  Potency: inconclusive: 10.5 µM [cytotoxic, single point]
[7]
  Potency: inconclusive: 12.6 µM [cytotoxic, partial curve]
[8]
  Potency: inconclusive: 35.5 µM [cytotoxic, single point]

## CCN1CCCC1CNC(=O)c1cc(S(N)(=O)=O)ccc1OC (stereo not drawn)
[1]
  Potency: inactive
[2]
  Potency: inactive
[3]
  Potency: inconclusive: 29.6 µM [cytotoxic, single point]
[5]
  Potency: inconclusive: 11.8 µM [cytotoxic, single point]
[10]
  Potency: inconclusive: 8.33 µM [cytotoxic, single point]
[6]
  Potency: inconclusive: 11.8 µM [cytotoxic, single point]

## CC(O)=C(C#N)C(=O)Nc1ccc(C(F)(F)F)cc1
[1]
  Potency: inconclusive: 1.18 µM [rising, partial curve, poor fit]
[2]
  Potency: inactive
[3]
  Potency: inactive
[9]
  Potency: inconclusive: 26.4 µM [cytotoxic, partial curve, poor fit]
[5]
  Potency: inconclusive: 10.5 µM [cytotoxic, single point]
[10]
  Potency: inconclusive: 11.8 µM [cytotoxic, single point]
[6]
  Potency: inconclusive: 8.33 µM [cytotoxic, partial curve]

## Cc1ccc(C(=O)N(CCCN)[C@@H](c2oc3cc(Cl)ccc3c(=O)c2Cc2ccccc2)C(C)C)cc1
[1]
  Potency: inactive
[2]
  Potency: inconclusive: 3.72 µM [cytotoxic, single point]
[11]
  Potency: inconclusive: 0.0012 µM [cytotoxic, full curve, poor fit]
[9]
  Potency: inconclusive: 0.0012 µM [cytotoxic, full curve]
[6]
  Potency: inactive
[7]
  Potency: active: 0.0141 µM

## CN[C@@H]1C[C@H]2O[C@@](C)([C@H]1OC)n1c3ccccc3c3c4c(c5c6ccccc6n2c5c31)C(=O)N[C@H]4O
[1]
  Potency: active: 0.833 µM
[2]
  Potency: active: 1.05 µM
[11]
  Potency: active: 0.743 µM

## CC(=O)NCC(=O)N1[C@H]2CC[C@H]1c1cc(Nc3ncc(C(F)(F)F)c(NC4CCC4)n3)ccc12
[1]
  Potency: inconclusive: 0.0833 µM [cytotoxic, full curve]
[2]
  Potency: inconclusive: 0.118 µM [cytotoxic, full curve]
[9]
  Potency: inconclusive: 0.118 µM [cytotoxic, full curve]

## CCNC(=O)CCCC=CC[C@@H]1[C@H](C=CC(O)CCc2ccccc2)[C@@H](O)C[C@@H]1O (stereo partly drawn)
[1]
  Potency: inconclusive: 29.6 µM [cytotoxic, single point]
[2]
  Potency: inconclusive: 37.2 µM [cytotoxic, single point]
[9]
  Potency: inactive
[5]
  Potency: inactive
[10]
  Potency: inactive
[6]
  Potency: inactive

## CON(C)C(=O)N1N=C(c2cc(F)ccc2F)S[C@]1(CCCN)c1ccccc1
[1]
  Potency: inconclusive: 0.0013 µM [cytotoxic, full curve]
[2]
  Potency: inconclusive: 0.0012 µM [cytotoxic, full curve]
[11]
  Potency: inconclusive: 0.0012 µM [cytotoxic, full curve]
[4]
  Potency: inactive
[10]
  Potency: inactive
[6]
  Potency: inactive

## CC[C@@]1(O)C(=O)OCc2c1cc1n(c2=O)Cc2cc3cc(O)ccc3nc2-1
[1]
  Potency: active: 0.118 µM
[2]
  Potency: active: 0.148 µM
[4]
  Potency: active: 0.0296 µM
[6]
  Potency: active: 0.0469 µM
[7]
  Potency: active: 0.224 µM
